This passage reports NP40-soluble protein abundance results from the supplement of paper PMC6411743.

By UniProt entry, the sequences of proteins in these tests, tags left out. Where a name states a change or a piece, a line headed by the entry shows the natural chain unless it says otherwise.
UniProt O75494: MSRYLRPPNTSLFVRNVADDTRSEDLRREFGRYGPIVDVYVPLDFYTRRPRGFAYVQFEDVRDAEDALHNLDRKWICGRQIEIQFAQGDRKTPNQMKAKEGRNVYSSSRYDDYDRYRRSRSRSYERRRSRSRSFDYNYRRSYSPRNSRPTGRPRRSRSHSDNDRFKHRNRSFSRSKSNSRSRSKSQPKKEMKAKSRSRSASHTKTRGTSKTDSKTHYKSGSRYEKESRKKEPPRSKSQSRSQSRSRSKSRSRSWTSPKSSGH
UniProt O75964: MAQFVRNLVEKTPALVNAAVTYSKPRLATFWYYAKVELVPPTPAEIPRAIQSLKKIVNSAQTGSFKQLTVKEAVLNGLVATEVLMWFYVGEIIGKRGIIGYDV
UniProt O75794: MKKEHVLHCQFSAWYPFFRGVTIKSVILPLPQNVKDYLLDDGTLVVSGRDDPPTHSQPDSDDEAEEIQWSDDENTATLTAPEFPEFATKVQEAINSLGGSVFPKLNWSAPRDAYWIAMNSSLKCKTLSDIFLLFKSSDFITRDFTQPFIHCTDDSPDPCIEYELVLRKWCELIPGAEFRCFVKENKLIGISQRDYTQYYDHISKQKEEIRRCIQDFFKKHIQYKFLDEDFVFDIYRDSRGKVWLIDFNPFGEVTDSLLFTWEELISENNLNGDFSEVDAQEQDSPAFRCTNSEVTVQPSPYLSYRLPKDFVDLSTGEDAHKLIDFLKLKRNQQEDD
UniProt O75529: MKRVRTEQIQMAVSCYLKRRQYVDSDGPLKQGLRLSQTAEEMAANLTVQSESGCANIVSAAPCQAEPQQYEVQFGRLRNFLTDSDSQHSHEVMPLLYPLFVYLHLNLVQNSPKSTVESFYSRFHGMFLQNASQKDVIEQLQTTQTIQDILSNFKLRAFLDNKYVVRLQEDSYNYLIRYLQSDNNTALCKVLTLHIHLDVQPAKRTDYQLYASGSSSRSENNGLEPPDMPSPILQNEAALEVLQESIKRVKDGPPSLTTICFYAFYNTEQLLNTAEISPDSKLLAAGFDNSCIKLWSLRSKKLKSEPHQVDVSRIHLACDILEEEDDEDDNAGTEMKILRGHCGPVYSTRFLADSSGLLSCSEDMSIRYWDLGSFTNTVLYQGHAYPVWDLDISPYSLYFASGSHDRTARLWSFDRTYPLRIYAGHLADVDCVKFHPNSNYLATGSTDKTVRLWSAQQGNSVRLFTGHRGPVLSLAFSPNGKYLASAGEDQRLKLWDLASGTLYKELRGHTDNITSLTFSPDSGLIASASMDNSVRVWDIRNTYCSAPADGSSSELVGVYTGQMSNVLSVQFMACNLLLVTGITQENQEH
UniProt O75143: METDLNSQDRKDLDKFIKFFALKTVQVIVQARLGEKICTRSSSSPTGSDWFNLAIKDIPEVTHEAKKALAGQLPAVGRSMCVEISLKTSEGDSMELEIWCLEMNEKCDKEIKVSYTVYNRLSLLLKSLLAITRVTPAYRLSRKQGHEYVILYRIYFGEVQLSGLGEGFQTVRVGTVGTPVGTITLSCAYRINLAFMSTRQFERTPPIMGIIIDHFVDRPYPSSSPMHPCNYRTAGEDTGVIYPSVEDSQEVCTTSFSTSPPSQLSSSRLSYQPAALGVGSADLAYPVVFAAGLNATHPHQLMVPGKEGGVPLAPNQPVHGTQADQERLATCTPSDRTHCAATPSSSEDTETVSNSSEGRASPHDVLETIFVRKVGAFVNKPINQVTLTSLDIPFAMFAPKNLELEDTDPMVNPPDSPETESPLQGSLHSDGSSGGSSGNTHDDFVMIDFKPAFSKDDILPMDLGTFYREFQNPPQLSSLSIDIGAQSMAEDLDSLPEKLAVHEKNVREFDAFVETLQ
UniProt O75351, whole entry: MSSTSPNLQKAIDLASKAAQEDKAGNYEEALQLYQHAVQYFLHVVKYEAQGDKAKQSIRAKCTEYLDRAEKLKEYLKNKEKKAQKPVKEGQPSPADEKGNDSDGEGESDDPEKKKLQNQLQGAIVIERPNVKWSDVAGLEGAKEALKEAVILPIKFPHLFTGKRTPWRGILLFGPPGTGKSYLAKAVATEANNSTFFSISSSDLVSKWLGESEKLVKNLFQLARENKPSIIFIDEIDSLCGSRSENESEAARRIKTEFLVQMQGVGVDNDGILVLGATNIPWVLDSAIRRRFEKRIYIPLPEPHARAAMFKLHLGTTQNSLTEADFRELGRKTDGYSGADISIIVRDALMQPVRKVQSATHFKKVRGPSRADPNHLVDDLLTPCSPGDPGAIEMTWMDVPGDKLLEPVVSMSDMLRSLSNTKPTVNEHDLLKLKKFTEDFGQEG
UniProt O94822: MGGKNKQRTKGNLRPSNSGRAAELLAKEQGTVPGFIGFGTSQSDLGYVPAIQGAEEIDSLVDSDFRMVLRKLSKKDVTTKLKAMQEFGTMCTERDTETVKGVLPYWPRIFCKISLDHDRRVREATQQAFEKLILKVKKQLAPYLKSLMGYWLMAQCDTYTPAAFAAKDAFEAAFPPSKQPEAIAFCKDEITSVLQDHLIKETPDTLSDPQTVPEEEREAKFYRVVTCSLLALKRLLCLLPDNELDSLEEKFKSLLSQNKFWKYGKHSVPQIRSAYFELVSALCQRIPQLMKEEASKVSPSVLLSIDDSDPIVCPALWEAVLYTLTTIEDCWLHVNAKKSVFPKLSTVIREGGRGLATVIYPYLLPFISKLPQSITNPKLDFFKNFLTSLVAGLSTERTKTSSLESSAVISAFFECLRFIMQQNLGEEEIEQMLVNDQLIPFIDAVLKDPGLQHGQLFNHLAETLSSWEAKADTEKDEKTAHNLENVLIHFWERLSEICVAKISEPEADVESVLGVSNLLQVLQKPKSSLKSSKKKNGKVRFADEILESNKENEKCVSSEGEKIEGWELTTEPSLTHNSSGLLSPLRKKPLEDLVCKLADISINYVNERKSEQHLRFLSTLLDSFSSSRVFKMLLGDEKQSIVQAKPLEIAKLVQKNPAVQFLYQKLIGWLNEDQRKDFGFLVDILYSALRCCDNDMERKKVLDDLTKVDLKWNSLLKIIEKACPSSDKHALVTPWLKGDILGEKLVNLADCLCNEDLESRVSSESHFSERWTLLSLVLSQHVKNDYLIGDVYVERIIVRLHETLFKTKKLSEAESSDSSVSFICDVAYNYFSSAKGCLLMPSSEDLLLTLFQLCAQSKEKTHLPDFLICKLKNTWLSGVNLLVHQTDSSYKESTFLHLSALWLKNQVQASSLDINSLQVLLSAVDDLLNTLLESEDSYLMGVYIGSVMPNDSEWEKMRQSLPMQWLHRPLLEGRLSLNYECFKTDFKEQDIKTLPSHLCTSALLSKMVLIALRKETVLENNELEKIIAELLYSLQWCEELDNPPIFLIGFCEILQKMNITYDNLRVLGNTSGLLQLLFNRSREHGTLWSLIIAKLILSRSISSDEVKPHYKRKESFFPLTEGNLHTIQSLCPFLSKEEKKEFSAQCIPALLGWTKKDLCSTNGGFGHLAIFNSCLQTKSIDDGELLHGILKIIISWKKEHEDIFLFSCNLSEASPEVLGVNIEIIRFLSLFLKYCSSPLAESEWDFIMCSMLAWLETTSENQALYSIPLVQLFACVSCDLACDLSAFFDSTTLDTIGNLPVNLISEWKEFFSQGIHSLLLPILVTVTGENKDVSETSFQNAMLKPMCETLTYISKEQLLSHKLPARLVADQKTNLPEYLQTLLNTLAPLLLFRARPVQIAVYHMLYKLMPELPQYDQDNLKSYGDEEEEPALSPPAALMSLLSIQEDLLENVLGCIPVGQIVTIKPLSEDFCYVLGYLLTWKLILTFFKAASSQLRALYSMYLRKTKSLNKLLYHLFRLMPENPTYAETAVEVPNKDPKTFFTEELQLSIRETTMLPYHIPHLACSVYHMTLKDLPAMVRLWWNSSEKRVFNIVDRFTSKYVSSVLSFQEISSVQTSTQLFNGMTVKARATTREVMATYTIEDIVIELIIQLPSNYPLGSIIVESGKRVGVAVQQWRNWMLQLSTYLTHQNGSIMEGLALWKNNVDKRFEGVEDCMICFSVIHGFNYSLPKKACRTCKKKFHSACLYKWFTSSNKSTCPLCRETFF
UniProt O95239: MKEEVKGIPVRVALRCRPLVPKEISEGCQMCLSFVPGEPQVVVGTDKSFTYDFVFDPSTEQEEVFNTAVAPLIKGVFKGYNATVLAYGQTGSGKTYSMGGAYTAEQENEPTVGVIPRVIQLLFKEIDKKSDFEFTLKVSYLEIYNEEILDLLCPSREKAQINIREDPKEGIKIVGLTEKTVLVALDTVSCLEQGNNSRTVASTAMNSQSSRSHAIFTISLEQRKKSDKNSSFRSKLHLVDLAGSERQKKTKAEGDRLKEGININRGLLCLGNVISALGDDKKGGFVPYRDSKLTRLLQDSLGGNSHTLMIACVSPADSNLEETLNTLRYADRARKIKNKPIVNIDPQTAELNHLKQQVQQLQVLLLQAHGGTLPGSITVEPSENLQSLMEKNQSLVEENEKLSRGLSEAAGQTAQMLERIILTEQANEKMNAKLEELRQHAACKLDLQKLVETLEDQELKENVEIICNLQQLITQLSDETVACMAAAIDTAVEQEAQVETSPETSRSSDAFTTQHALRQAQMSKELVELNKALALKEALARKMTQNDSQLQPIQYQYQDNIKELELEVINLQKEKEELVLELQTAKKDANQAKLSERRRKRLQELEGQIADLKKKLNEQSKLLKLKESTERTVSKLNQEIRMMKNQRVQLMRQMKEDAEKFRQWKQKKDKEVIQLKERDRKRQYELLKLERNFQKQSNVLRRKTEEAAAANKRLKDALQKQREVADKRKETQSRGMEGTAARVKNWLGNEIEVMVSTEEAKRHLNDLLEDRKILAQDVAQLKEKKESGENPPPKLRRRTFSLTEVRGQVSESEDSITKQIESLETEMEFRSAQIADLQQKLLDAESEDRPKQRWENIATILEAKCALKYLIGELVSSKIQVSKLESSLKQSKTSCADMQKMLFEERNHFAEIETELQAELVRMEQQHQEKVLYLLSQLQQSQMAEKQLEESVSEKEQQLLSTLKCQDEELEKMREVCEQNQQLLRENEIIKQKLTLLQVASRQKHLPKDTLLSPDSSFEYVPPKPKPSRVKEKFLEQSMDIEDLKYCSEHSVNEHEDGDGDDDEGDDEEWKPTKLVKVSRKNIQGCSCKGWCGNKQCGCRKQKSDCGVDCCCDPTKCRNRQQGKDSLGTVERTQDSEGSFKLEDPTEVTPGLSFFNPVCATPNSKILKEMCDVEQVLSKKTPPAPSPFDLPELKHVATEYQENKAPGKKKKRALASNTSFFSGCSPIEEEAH
UniProt O75822, whole entry: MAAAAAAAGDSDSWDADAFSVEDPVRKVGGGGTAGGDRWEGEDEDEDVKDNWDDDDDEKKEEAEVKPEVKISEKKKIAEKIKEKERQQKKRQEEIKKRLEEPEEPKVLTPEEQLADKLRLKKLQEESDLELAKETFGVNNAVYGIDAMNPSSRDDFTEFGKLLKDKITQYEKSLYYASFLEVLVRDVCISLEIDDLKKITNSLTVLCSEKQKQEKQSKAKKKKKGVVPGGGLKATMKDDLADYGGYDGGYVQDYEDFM
UniProt O94888: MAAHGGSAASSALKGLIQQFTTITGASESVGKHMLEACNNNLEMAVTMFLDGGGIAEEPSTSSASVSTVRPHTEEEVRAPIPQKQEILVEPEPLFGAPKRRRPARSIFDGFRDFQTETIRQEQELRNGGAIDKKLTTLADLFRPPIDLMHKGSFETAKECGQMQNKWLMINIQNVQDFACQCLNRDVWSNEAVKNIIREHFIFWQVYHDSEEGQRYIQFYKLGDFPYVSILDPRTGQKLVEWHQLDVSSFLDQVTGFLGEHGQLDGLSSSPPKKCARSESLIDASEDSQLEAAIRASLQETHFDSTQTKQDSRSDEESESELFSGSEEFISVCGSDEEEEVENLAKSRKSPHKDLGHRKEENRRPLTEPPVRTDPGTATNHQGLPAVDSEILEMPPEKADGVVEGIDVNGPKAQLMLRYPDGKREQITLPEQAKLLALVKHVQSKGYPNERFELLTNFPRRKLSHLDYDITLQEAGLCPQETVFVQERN
UniProt O95402: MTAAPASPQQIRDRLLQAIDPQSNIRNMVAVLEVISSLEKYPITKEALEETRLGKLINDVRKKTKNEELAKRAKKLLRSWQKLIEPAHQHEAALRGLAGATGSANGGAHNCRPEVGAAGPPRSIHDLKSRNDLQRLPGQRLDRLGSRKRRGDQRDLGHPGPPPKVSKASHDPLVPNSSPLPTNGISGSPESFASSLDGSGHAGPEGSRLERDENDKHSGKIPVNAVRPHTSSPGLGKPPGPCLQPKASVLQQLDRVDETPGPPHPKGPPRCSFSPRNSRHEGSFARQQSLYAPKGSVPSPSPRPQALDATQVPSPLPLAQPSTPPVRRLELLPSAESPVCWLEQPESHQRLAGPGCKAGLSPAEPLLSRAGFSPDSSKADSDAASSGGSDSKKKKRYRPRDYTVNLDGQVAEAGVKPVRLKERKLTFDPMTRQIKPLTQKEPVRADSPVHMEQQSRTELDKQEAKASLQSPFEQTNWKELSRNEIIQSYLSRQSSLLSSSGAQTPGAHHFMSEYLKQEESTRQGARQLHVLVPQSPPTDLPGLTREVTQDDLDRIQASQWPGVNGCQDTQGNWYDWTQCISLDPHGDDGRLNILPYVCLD

± gives the standard deviation of the averaged measurements. The list shows a part of the results, in another mix than the full data. Small differences around the control level are noise.

Compound in this test: Nc1ncnc2c1ncn2[C@@H]1O[C@H](COP(=O)(O)OP(=O)(O)OP(=O)(O)O)[C@@H](O)[C@H]1O [adenosine triphosphate]
The test can be described thus: NP40-soluble protein abundance relative to vehicle (solubility fold change) (ratio); higher = more soluble protein in presence of ATP. To be noted: concentration: 0.1mM. The method, boiled down:
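Across three independent experiments, values are fold changes against the detergent-processed vehicle for each replicate, based on vsn-normalised intensities. The samples were Jurkat crude lysate treated with eight concentrations (0.1 to 10 mM) for 10 min at room temperature and then 3 min at 37 °C. Lysate was solubilised with 0.8% NP40 and benzonase, ultracentrifuged, and the supernatant analysed by TMT-labelled LC-MS/MS.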
Regarding UniProt O75494 and related entries, the NP40-soluble protein abundance was found to be 1.03 ± 0.02.

As for UniProt O60645 and related entries, the NP40-soluble protein abundance was 1.06 ± 0.033.

As to UniProt O94768, the NP40-soluble protein abundance was 1.1 ± 0.023.

On to CBR3 (UniProt O75828), for which the NP40-soluble protein abundance is 1.03 ± 0.035.

As for UniProt O75964, the NP40-soluble protein abundance worked out at 0.858 ± 0.08.

In the case of CDC123 (UniProt O75794), the NP40-soluble protein abundance came out at 1.03 ± 0.05.

Regarding SNRNP200 (UniProt O75643), the NP40-soluble protein abundance is 1.04 ± 0.041.

As for UniProt O95425 and related entries, the NP40-soluble protein abundance is 1.04 ± 0.38.

In the case of TAF5L (UniProt O75529), the NP40-soluble protein abundance worked out at 1.05 ± 0.073.

For UniProt O75143 and related entries, the NP40-soluble protein abundance is 0.991 ± 0.036.

Turning to UniProt O95236 and related entries, the NP40-soluble protein abundance is 0.932 ± 0.023.

Consider UniProt O75592 and related entries, for which the NP40-soluble protein abundance stood at 0.974 ± 0.12.

Take VPS4B (UniProt O75351): the NP40-soluble protein abundance is 1.05 ± 0.048.

As for UniProt O94822 and related entries, the NP40-soluble protein abundance amounted to 1.07 ± 0.031.

UniProt O95104 and related entries: the NP40-soluble protein abundance was determined as 1.15 ± 0.046.

UniProt O94916 and related entries: the NP40-soluble protein abundance came out at 1 ± 0.052.

Consider KIF4A (UniProt O95239), for which the NP40-soluble protein abundance stood at 1.02 ± 0.019.

As for UniProt O75822 and related entries, the NP40-soluble protein abundance was 0.903 ± 0.054.

Regarding UBXN7 (UniProt O94888), the NP40-soluble protein abundance came to 1 ± 0.025.

With CTSV (UniProt O60911), the NP40-soluble protein abundance worked out at 1.05 ± 0.035.

As to UniProt O95747, the NP40-soluble protein abundance was found to be 1.05 ± 0.052.

With UniProt O95684-2, the NP40-soluble protein abundance worked out at 0.912 ± 0.053.

UTP20 (UniProt O75691): the NP40-soluble protein abundance stood at 1.04 ± 0.059.

On to NPM3 (UniProt O75607), for which the NP40-soluble protein abundance amounted to 0.996 ± 0.039.

With ENDOD1 (UniProt O94919), the NP40-soluble protein abundance is 1.03 ± 0.027.

With MED26 (UniProt O95402), the NP40-soluble protein abundance was found to be 1.02 ± 0.087.

On to ROCK2 (UniProt O75116), for which the NP40-soluble protein abundance is 0.9874 ± 0.0087.
